Results as given in publication PMC9102673.
Results are given in words; binding and its absence hold for the method and conditions named. In cells and extracts the contact can be indirect. Binding can be weak; no strength is given.

B1: ectodermal-neural cortex 1 (ENC1) (protein, UniProt O14682 1-589)
chain: MSVSVHENRKSRASSGSINIYLFHKSSYADSVLTHLNLLRQQRLFTDVLLHAGNRTFPCHRAVLAACSRYFEAMFSGGLKESQDSEVNFDNSIHPEVLELLLDYAYSSRVIINEENAESLLEAGDMLEFQDIRDACAEFLEKNLHPTNCLGMLLLSDAHQCTKLYELSWRMCLSNFQTIRKNEDFLQLPQDMVVQLLSSEELETEDERLVYESAINWISYDLKKRYCYLPELLQTVRLALLPAIYLMENVAMEELITKQRKSKEIVEEAIRCKLKILQNDGVVTSLCARPRKTGHALFLLGGQTFMCDKLYLVDQKAKEIIPKADIPSPRKEFSACAIGCKVYITGGRGSENGVSKDVWVYDTLHEEWSKAAPMLVARFGHGSAELKHCLYVVGGHTAATGCLPASPSVSLKQVEHYDPTINKWTMVAPLREGVSNAAVVSAKLKLFAFGGTSVSHDKLPKVQCYDQCENRWTVPATCPQPWRYTAAAVLGNQIFIMGGDTEFSACSAYKFNSETYQWTKVGDVTAKRMSCHAVASGNKLYVVGGYFGIQRCKTLDCYDPTLDVWNSITTVPYSLIPTAFVSTWKHLPS
B2: E2F7 (protein, UniProt Q96AV8 1-911)
chain: MEVNCLTLKDLISPRQPRLDFAVEDGENAQKENIFVDRSRMAPKTPIKNEPIDLSKQKKFTPERNPITPVKFVDRQQAEPWTPTANLKMLISAASPDIRDREKKKGLFRPIENKDDAFTDSLQLDVVGDSAVDEFEKQRPSRKQKSLGLLCQKFLARYPSYPLSTEKTTISLDEVAVSLGVERRRIYDIVNVLESLHLVSRVAKNQYGWHGRHSLPKTLRNLQRLGEEQKYEEQMAYLQQKELDLIDYKFGERKKDGDPDSQEQQLLDFSEPDCPSSSANSRKDKSLRIMSQKFVMLFLVSKTKIVTLDVAAKILIEESQDAPDHSKFKTKVRRLYDIANVLTSLALIKKVHVTEERGRKPAFKWIGPVDFSSSDEELVDVSASVLPELKRETYGQIQVCAKQKLARHGSFNTVQASERIQRKVNSEPSSPYREEQGSGGYSLEIGSLAAVYRQKIEDNSQGKAFASKRVVPPSSSLDPVAPFPVLSVDPEYCVNPLAHPVFSVAQTDLQAFSMQNGLNGQVDVSLASAASAVESLKPALLAGQPLVYVPSASLFMLYGSLQEGPASGSGSERDDRSSEAPATVELSSAPSAQKRLCEERKPQEEDEPATKRQSREYEDGPLSLVMPKKPSDSTDLASPKTMGNRASIPLKDIHVNGQLPAAEEISGKATANSLVSSEWGNPSRNTDVEKPSKENESTKEPSLLQYLCVQSPAGLNGFNVLLSGSQTPPTVGPSSGQLPSFSVPCMVLPSPPLGPFPVLYSPAMPGPVSSTLGALPNTGPVNFSLPGLGSIAQLLVGPTAVVNPKSSTLPSADPQLQSQPSLNLSPVMSRSHSVVQQPESPVYVGHPVSVVKLHQSPVPVTPKSIQRTHRETFFKTPGSLGDPVLKRRERNQSRNTSSAQRRLEIPSGGAD

Molecular target: DNA damage-inducible transcript 4 (DDIT4) (not stated (human or mouse cDNA cloned))
Experiment: co-IP; DDIT4-overexpressing SK-N-SH cells treated with or without sodium arsenite; lysate in PLB buffer (10 mM HEPES pH 7.0, 100 mM KCl, 5 mM MgCl2, 0.5% NP-40); anti-DDIT4 antibody or IgG control, Protein A/G magnetic beads, washes with NT2 buffer (250 mM NaCl); immunoblot

Row | Binder | binding
1 | B1 | binds
2 | B2 | binds
